The list shows a part of the results.
Experiments:
Assay in all cases: log2 fold change, soluble protein after heating vs DMSO (PISA); higher = thermal stabilisation; K562 cells, 10 uM, 30 min; active = over 0.2 and 3.5 SD of the protein, either way, in both replicates (recomputed)
saracatinib = compound: CN1CCN(CCOc2cc(OC3CCOCC3)c3c(Nc4c(Cl)ccc5c4OCO5)ncnc3c2)CC1 [saracatinib]
Procedure, shortened: (§1)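 K562 cells at 2×10^6 cells/mL were given 10 μM compound for 30 min. Aliquots then went through 3 min of heating across 48°C-58°C, were pooled, and were extracted in PBS with 0.5% NP-40 at 4°C, and the supernatant after 21,000xg for 90 min was quantified by TMTpro 16plex LC-MS/MS with channel sums equalised. Thermal stability relative to control samples, from duplicates, is given as log2 fold change.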

The chains behind the UniProt entries cited, without tags or fusion partners. Where a name states a change or a piece, a line headed by the entry shows the natural chain unless it says otherwise.
UniProt P55145: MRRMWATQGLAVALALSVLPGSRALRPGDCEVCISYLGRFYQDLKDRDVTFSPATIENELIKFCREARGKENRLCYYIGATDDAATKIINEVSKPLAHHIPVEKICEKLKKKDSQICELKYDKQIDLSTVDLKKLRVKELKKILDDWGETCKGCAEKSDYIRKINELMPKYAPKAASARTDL
UniProt Q7Z3D4: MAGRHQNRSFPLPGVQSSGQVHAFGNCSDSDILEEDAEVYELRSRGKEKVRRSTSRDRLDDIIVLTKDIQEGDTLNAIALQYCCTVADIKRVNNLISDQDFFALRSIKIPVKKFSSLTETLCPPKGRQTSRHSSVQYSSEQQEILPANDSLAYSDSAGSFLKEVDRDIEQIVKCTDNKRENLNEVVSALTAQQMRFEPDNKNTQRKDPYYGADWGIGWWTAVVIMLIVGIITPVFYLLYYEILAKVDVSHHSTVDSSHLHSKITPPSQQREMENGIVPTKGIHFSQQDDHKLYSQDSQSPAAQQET
UniProt O00462: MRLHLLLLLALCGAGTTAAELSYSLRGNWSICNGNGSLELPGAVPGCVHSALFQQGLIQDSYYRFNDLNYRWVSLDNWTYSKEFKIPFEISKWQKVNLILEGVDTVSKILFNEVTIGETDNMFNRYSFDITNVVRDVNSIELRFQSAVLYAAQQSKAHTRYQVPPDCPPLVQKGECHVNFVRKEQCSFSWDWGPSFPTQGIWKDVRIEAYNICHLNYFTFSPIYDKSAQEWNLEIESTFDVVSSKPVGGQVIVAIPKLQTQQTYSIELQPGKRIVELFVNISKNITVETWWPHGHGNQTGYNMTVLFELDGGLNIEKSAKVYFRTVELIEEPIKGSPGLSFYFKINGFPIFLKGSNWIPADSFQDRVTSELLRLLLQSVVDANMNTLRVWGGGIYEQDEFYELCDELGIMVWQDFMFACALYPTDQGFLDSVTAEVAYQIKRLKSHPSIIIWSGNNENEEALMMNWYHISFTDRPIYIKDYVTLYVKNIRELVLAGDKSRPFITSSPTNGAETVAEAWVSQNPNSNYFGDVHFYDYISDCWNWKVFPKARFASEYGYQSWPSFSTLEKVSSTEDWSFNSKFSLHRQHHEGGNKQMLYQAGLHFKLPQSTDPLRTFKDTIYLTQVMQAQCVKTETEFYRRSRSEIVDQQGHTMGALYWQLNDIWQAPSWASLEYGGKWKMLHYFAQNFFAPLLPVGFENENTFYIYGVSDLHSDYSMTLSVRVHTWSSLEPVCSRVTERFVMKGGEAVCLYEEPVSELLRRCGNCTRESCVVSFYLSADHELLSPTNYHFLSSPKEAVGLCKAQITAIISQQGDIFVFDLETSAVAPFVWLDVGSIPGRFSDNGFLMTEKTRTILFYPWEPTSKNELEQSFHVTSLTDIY
UniProt O95777: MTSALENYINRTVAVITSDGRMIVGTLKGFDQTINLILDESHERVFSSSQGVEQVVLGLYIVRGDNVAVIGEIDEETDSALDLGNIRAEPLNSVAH
UniProt O75608: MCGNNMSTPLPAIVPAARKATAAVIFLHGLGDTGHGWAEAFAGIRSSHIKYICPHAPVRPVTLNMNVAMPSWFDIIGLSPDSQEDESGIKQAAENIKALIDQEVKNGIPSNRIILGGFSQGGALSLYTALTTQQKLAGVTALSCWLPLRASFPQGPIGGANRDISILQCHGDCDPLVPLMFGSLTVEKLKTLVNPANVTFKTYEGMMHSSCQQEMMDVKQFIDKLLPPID
UniProt P02788: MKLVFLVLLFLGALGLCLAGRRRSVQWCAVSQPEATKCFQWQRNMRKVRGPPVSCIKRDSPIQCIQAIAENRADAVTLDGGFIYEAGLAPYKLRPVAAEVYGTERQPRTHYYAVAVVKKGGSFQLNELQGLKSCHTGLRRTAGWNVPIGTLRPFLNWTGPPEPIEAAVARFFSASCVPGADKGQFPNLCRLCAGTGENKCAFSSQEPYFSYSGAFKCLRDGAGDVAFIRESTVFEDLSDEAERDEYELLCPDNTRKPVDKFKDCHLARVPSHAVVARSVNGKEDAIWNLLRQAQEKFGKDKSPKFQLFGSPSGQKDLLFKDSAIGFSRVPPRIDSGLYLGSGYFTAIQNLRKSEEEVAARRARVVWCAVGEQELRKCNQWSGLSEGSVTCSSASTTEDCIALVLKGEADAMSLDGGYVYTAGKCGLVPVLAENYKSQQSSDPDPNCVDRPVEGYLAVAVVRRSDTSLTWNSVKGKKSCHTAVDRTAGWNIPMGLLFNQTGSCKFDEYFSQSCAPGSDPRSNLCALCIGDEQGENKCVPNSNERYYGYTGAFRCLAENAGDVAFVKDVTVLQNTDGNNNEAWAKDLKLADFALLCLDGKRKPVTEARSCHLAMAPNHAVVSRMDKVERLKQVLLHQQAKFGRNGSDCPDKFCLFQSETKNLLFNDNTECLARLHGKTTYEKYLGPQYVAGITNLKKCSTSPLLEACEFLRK
UniProt Q7L1W4: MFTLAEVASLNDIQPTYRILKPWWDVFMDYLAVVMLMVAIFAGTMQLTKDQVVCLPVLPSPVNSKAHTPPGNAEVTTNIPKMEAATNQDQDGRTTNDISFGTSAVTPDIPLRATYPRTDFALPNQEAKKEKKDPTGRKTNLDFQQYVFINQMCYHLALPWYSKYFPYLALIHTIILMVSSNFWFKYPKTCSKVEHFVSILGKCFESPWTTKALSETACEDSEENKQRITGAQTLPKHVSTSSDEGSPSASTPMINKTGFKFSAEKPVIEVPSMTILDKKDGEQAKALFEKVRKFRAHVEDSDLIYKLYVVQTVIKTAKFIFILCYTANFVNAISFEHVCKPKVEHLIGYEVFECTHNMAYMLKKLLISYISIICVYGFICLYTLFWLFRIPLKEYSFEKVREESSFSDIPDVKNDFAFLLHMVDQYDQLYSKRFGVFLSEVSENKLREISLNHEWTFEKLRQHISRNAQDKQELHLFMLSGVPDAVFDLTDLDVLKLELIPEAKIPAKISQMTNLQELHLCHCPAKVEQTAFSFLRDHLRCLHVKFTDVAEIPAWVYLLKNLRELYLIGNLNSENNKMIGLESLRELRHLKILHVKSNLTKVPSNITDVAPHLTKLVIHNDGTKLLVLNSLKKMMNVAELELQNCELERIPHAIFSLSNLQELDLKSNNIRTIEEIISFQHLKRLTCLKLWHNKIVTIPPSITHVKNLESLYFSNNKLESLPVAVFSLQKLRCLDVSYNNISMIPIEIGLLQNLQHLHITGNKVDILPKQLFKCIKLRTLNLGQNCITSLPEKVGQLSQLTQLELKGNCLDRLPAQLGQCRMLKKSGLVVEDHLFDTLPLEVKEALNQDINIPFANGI
UniProt Q5VWZ2: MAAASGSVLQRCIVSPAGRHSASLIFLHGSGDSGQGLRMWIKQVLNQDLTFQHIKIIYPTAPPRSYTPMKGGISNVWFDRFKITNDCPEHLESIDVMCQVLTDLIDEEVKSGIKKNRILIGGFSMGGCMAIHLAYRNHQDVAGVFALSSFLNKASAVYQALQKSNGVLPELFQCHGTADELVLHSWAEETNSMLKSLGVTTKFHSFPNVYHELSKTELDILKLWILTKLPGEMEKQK
UniProt Q9UFC0: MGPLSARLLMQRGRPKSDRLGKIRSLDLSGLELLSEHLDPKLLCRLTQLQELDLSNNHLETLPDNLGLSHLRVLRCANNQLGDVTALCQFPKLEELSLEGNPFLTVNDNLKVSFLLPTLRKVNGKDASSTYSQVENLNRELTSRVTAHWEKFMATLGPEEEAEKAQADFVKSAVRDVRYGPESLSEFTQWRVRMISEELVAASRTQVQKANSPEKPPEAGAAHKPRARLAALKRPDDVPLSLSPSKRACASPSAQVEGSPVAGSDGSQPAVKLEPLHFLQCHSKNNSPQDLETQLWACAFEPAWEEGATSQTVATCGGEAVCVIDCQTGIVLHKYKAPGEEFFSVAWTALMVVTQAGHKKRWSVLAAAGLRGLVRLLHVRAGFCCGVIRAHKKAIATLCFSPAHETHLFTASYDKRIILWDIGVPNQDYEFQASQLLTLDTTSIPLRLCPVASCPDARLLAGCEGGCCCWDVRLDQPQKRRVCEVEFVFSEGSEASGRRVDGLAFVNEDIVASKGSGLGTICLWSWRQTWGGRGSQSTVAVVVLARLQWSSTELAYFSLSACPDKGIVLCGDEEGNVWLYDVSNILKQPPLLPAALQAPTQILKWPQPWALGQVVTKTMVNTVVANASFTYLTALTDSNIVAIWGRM
UniProt Q66K74: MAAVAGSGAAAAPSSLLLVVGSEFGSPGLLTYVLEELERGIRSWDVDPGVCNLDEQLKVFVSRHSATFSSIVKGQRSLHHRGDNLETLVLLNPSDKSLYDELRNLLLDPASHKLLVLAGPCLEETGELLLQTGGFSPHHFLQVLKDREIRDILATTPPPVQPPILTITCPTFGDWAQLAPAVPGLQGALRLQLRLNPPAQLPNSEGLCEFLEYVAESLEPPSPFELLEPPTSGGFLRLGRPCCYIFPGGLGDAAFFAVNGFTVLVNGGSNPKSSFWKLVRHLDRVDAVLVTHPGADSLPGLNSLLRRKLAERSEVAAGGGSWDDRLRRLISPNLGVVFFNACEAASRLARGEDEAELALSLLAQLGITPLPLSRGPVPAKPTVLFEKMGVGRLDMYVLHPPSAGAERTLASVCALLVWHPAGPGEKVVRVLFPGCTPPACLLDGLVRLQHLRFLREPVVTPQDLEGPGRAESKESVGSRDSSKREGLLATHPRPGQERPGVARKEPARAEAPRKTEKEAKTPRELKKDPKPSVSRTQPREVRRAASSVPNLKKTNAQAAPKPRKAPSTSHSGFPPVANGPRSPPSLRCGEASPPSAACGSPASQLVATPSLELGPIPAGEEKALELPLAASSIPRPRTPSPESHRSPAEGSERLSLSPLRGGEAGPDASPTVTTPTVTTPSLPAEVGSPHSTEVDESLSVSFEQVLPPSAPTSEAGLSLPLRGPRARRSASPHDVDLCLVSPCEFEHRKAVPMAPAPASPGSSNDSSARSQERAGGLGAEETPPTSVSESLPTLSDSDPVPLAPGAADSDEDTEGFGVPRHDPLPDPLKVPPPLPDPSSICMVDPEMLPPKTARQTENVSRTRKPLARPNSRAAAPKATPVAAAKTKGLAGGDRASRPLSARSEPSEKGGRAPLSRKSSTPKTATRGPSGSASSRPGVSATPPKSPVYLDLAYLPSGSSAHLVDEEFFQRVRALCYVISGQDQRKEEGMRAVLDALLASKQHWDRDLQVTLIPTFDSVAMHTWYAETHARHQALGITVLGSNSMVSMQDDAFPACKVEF
UniProt P28482, whole entry, looked up: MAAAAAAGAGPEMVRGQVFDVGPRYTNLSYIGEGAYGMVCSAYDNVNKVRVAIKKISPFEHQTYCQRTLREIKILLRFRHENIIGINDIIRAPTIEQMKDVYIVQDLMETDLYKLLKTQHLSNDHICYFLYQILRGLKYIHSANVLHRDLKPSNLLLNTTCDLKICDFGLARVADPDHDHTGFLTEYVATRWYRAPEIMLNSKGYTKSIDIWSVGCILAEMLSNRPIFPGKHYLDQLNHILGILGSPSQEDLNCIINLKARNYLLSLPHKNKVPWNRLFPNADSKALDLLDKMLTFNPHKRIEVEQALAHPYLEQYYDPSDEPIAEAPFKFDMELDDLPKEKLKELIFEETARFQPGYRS
UniProt Q9NX47: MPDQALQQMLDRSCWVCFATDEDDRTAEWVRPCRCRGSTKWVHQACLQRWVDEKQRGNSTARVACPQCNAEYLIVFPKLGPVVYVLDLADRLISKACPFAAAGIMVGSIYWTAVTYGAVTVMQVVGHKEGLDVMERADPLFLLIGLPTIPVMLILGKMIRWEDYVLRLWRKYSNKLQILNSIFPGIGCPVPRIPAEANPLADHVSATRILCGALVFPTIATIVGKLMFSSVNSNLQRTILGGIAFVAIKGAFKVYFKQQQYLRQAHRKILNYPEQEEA

sotrastaurin = compound: CN1CCN(c2nc(C3=C(c4c[nH]c5ccccc45)C(=O)NC3=O)c3ccccc3n2)CC1 [sotrastaurin]
Procedure, shortened: as §1

alvocidib = compound: CN1CC[C@H](c2c(O)cc(O)c3c(=O)cc(-c4ccccc4Cl)oc23)[C@H](O)C1 [alvocidib]
Procedure, shortened: as §1

Tubastatin A = compound: CN1CCc2c(c3ccccc3n2Cc2ccc(C(=O)NO)cc2)C1 [Tubastatin A]
Procedure, shortened: as §1

[1] = compound: CNC(=O)C1=CC=CC=C1NC2=NC(=NC=C2Cl)NC3=C(C=C(C=C3)N4CCOCC4)OC
Procedure, shortened: as §1

defactinib = compound: CNC(=O)c1ccc(Nc2ncc(C(F)(F)F)c(NCc3nccnc3N(C)S(C)(=O)=O)n2)cc1 [defactinib]
Procedure, shortened: as §1

rucaparib = compound: CNCc1ccc(-c2[nH]c3cc(F)cc4c3c2CCNC4=O)cc1 [rucaparib]
Procedure, shortened: as §1

[2] = compound: CNc1nc(-c2ccc3c(N)n[nH]c3c2)cc(N2C[C@@H](C(=O)NC3CCCCC3)CC[C@H]2C)n1
Procedure, shortened: as §1

encorafenib = compound: COC(=O)N[C@@H](C)CNc1nccc(-c2cn(C(C)C)nc2-c2cc(Cl)cc(NS(C)(=O)=O)c2F)n1 [encorafenib]
Procedure, shortened: as §1

[3] = compound: COC(=O)[C@H](CCSC)NC(=O)C1=C(C=C(C=C1)NC[C@H](CS)N)C2=CC=CC=C2
Procedure, shortened: as §1

[4] = compound: COC1=CC=C(C=C1)CN2C=CC3=C2C=C(C=C3)C(=O)NO
Procedure, shortened: as §1

filanesib = compound: CON(C)C(=O)N1N=C(c2cc(F)ccc2F)S[C@@]1(CCCN)c1ccccc1 [filanesib]
Procedure, shortened: as §1

zotarolimus = compound: CO[C@H]1C[C@@H]2CC[C@@H](C)[C@@](O)(O2)C(=O)C(=O)N2CCCC[C@H]2C(=O)O[C@H]([C@H](C)C[C@@H]2CC[C@H](n3cnnn3)[C@H](OC)C2)CC(=O)[C@H](C)/C=C(\C)[C@@H](O)[C@@H](OC)C(=O)[C@H](C)C[C@H](C)/C=C/C=C/C=C/1C [zotarolimus]
Procedure, shortened: as §1

idasanutlin = compound: COc1cc(C(=O)O)ccc1NC(=O)[C@@H]1N[C@@H](CC(C)(C)C)[C@](C#N)(c2ccc(Cl)cc2F)[C@H]1c1cccc(Cl)c1F [idasanutlin]
Procedure, shortened: as §1

alisertib = compound: COc1cc(Nc2ncc3c(n2)-c2ccc(Cl)cc2C(c2c(F)cccc2OC)=NC3)ccc1C(=O)O [alisertib]
Procedure, shortened: as §1

[5] = compound: COc1cc2nc(-c3cc(F)ccc3O)nc(N[C@@H]3CNC[C@H]3C(C)(C)O)c2cc1OC
Procedure, shortened: as §1

gefitinib = compound: COc1cc2ncnc(Nc3ccc(F)c(Cl)c3)c2cc1OCCCN1CCOCC1 [gefitinib]
Procedure, shortened: as §1

[6] = compound: COc1cccc2cc(-c3nc([C@H]4CC[C@H](C(=O)O)CC4)n4ncnc(N)c34)[nH]c12
Procedure, shortened: as §1

lapatinib = compound: CS(=O)(=O)CCNCc1ccc(-c2ccc3ncnc(Nc4ccc(OCc5cccc(F)c5)c(Cl)c4)c3c2)o1 [lapatinib]
Procedure, shortened: as §1

pictilisib = compound: CS(=O)(=O)N1CCN(Cc2cc3nc(-c4cccc5[nH]ncc45)nc(N4CCOCC4)c3s2)CC1 [pictilisib]
Procedure, shortened: as §1

Measured: log2 fold change

MAGEC1 (UniProt O60732)
inactive: saracatinib -0.122 | sotrastaurin -0.195 | alvocidib -0.032 | Tubastatin A 0.011 | [1] -0.004 | defactinib 0.034 | rucaparib 0.389 | [2] 0.049 | encorafenib 0.22 | [3] -0.023 | [4] 0.009 | filanesib 0.255 | zotarolimus 0.078 | idasanutlin 0.072 | alisertib -0.042 | [5] -0.01 | gefitinib 0.012 | [6] -0.196 | lapatinib 0.122 | pictilisib -0.052

LYZ (UniProt P61626)
inactive: saracatinib -0.026 | sotrastaurin 0.157 | alvocidib -0.071 | Tubastatin A -0.02 | [1] 0.021 | defactinib 0.131 | rucaparib 0.122 | [2] 0.349 | encorafenib -0.156 | [3] 0.457 | [4] 0.592 | filanesib 0.034 | zotarolimus 0.059 | idasanutlin 0.27 | alisertib -0.003 | [5] -0.133 | gefitinib 0.306 | [6] 0.103 | lapatinib 0.207

MANF (UniProt P55145)
inactive: saracatinib 0.015 | sotrastaurin 0.004 | alvocidib 0.006 | Tubastatin A -0.047 | [1] 0.088 | defactinib -0.022 | rucaparib -0.032 | [2] -0.018 | encorafenib -0.043 | [3] -0.005 | [4] -0.032 | filanesib -0.057 | zotarolimus -0.043 | idasanutlin -0.012 | alisertib -0.016 | [5] -0.017 | gefitinib 0.011 | [6] 0.019 | lapatinib -0.014 | pictilisib 0.017

LYSMD3 (UniProt Q7Z3D4)
inactive: saracatinib 0.022 | sotrastaurin 0.064 | alvocidib -0.15 | Tubastatin A -0.003 | [1] -0.037 | defactinib -0.016 | rucaparib -0.135 | [2] -0.072 | encorafenib 0.067 | [3] 0.028 | [4] -0.002 | filanesib -0.02 | zotarolimus 0.127 | idasanutlin -0.092 | alisertib 0.008 | [5] -0.057 | gefitinib -0.016 | [6] 0.066 | lapatinib 0.15 | pictilisib 0.042

MANBA (UniProt O00462)
inactive: saracatinib 0.069 | sotrastaurin 0.017 | alvocidib 0.022 | Tubastatin A -0.011 | [1] -0.009 | defactinib -0.074 | rucaparib -0.045 | [2] -0.02 | encorafenib 0.207 | [3] 0.072 | [4] -0.082 | filanesib -0.014 | zotarolimus -0.026 | idasanutlin 0.026 | alisertib -0.037 | [5] -0.045 | gefitinib 0.028 | [6] 0.035 | lapatinib 0.126 | pictilisib -0.041

LSM8 (UniProt O95777)
inactive: saracatinib 0.013 | sotrastaurin 0.037 | alvocidib 0.017 | Tubastatin A -0.033 | [1] -0.018 | defactinib -0.004 | rucaparib -0.063 | [2] -0.034 | encorafenib 0.005 | [3] 0.014 | [4] -0.065 | filanesib -0.012 | zotarolimus -0.008 | idasanutlin -0.031 | alisertib -0.023 | [5] 0.025 | gefitinib -0.013 | [6] 0.051 | lapatinib -0.008 | pictilisib 0.022

MAK16 (UniProt Q9BXY0)
inactive: saracatinib -0.043 | sotrastaurin -0.157 | alvocidib 0.116 | Tubastatin A -0.075 | [1] -0.101 | defactinib -0.05 | rucaparib 0.001 | [2] -0.03 | encorafenib -0.024 | [3] 0.002 | [4] -0.017 | filanesib 0.115 | zotarolimus 0.033 | idasanutlin 0.061 | alisertib -0.046 | [5] -0.127 | gefitinib -0.065 | [6] 0.02 | lapatinib 0.156 | pictilisib 0.053

MACF1 (UniProt H3BQK9)
inactive: saracatinib -0.126 | sotrastaurin -0.187 | alvocidib 0.02 | Tubastatin A -0.008 | [1] 0.052 | defactinib 0.106 | rucaparib 0.121 | [2] 0.077 | encorafenib 0.181 | [3] 0.024 | [4] -0.095 | filanesib 0.149 | zotarolimus 0.115 | idasanutlin 0.026 | alisertib -0.237 | [5] -0.028 | gefitinib 0.099 | [6] -0.248 | lapatinib 0.089 | pictilisib -0.005

LYPLA1 (UniProt O75608)
inactive: saracatinib 0.012 | sotrastaurin 0.012 | alvocidib -0.003 | Tubastatin A 0.006 | [1] 0.009 | defactinib -0.015 | rucaparib -0.051 | [2] -0.005 | encorafenib -0.022 | [3] 0.031 | [4] -0.029 | filanesib -0.034 | zotarolimus 0.024 | idasanutlin -0.031 | alisertib -0.031 | [5] -0.031 | gefitinib -0.006 | [6] 0.02 | lapatinib -0.059 | pictilisib 0.017

LTF (UniProt P02788)
inactive: saracatinib 0.555 | sotrastaurin 0.058 | alvocidib -0.035 | Tubastatin A -0.146 | [1] 0.333 | defactinib -0.063 | rucaparib -0.248 | [2] 0.051 | encorafenib 0.007 | [3] 0.154 | [4] -0.135 | filanesib 0.288 | zotarolimus -0.119 | idasanutlin 0.142 | alisertib -0.052 | [5] -0.118 | gefitinib -0.032 | [6] 0.181 | lapatinib 0.036 | pictilisib 0.248

LRRC8D (UniProt Q7L1W4)
inactive: saracatinib -0.096 | sotrastaurin -0.146 | alvocidib 0.14 | Tubastatin A -0.001 | [1] -0.234 | defactinib 0.163 | rucaparib 0.31 | [2] 0.065 | encorafenib 0.166 | [3] 0.029 | [4] -0.115 | filanesib 0.13 | zotarolimus 0.083 | idasanutlin 0.169 | alisertib -0.066 | [5] -0.105 | gefitinib -0.032 | [6] -0.056 | lapatinib 0.128

LYPLAL1 (UniProt Q5VWZ2)
inactive: saracatinib 0.012 | sotrastaurin -0.007 | alvocidib -0.126 | Tubastatin A 0.026 | [1] 0.017 | defactinib -0.044 | rucaparib -0.101 | [2] -0.047 | encorafenib 0.009 | [3] -0.017 | [4] 0.032 | filanesib -0.064 | zotarolimus 0.035 | idasanutlin -0.082 | alisertib 0.021 | [5] 0.018 | gefitinib -0.029 | [6] 0.02 | lapatinib 0.002 | pictilisib 0.081

LRWD1 (UniProt Q9UFC0)
inactive: saracatinib -0.065 | sotrastaurin -0.303 | alvocidib -0.178 | Tubastatin A 0.143 | [1] -0.013 | defactinib -0.366 | rucaparib 0.049 | [2] 0.092 | encorafenib 0.145 | [3] -0.255 | [4] 0.11 | filanesib -0.141 | zotarolimus 0.121 | idasanutlin -0.028 | alisertib -0.041 | [5] 0.07 | gefitinib 0.013 | [6] 0.144 | lapatinib 0.093

MAP1S (UniProt Q66K74)
inactive: saracatinib 0.03 | sotrastaurin -0.019 | alvocidib -0.014 | Tubastatin A 0.032 | [1] -0.012 | defactinib -0.024 | rucaparib 0.103 | [2] 0.077 | encorafenib 0.084 | [3] -0.05 | [4] -0.013 | filanesib 0.037 | zotarolimus 0.038 | idasanutlin -0.034 | alisertib -0.089 | [5] 0.027 | gefitinib -0.009 | [6] -0.066 | lapatinib 0.02 | pictilisib 0.018

MAPK1 (UniProt P28482)
inactive: saracatinib 0.041 | sotrastaurin 0.012 | alvocidib -0.019 | Tubastatin A -0.011 | [1] -0.004 | defactinib -0.001 | rucaparib -0.05 | [2] -0.025 | encorafenib -0.018 | [3] 0.044 | [4] -0.007 | filanesib -0.035 | zotarolimus -0.001 | idasanutlin -0.045 | alisertib -0.03 | [5] -0.024 | gefitinib 0.003 | [6] 0.043 | lapatinib -0.016 | pictilisib 0.002

MARCHF5 (UniProt Q9NX47)
inactive: saracatinib 0.047 | sotrastaurin 0.028 | alvocidib -0.075 | Tubastatin A 0.016 | [1] -0.036 | defactinib -0.054 | rucaparib -0.025 | [2] -0.063 | encorafenib 0.042 | [3] -0.02 | [4] -0.053 | filanesib 0.029 | zotarolimus -0.004 | idasanutlin -0.016 | alisertib -0.015 | [5] -0.045 | gefitinib -0.027 | [6] 0.04 | lapatinib 0.038 | pictilisib 0.183

Quoted from the entries so far (2 entries):
MAP1S (UniProt Q66K74)
inactive: saracatinib 0.03 | sotrastaurin -0.019 | alvocidib -0.014 | Tubastatin A 0.032 | [1] -0.012 | defactinib -0.024 | rucaparib 0.103 | [2] 0.077 | encorafenib 0.084 | [3] -0.05 | [4] -0.013 | filanesib 0.037 | zotarolimus 0.038 | idasanutlin -0.034 | alisertib -0.089 | [5] 0.027 | gefitinib -0.009 | [6] -0.066 | lapatinib 0.02 | pictilisib 0.018

MAPK1 (UniProt P28482)
inactive: saracatinib 0.041 | sotrastaurin 0.012 | alvocidib -0.019 | Tubastatin A -0.011 | [1] -0.004 | defactinib -0.001 | rucaparib -0.05 | [2] -0.025 | encorafenib -0.018 | [3] 0.044 | [4] -0.007 | filanesib -0.035 | zotarolimus -0.001 | idasanutlin -0.045 | alisertib -0.03 | [5] -0.024 | gefitinib 0.003 | [6] 0.043 | lapatinib -0.016 | pictilisib 0.002
